Measurements published in patent US8791116B2, “Myosin light chain kinase inhibitor compounds, compositions and related methods of use” (Northwestern University, priority 2006, dated 2014).
Some results were stated once for a whole list of compounds, not compound by compound.

Molecular target: MLCK (Homo sapiens, UniProt Q15746)
Experiment: MLCK inhibitory activity screen (32P-ATP peptide substrate phosphorylation)
Assay type: biochemical
Conditions: under the conditions used
Method: MLCK inhibitory activity screens were done by incubation with 20 μM peptide substrate ([…]), 200 μM ATP and [^32P]-ATP (2.5 μCi per reaction) in assay buffer (50 mM HEPES, pH 7.5 with KOH, 5 mM MgCl2, 0.15 M KCl, 0.015 M NaCl, 1 mM DTT) with 0.1 mM CaCl2 and 1 μM calmodulin (New England Biolabs, MA). [T. J. Lukas, S. Mirzoeva, U. Slomczynska and D. M. Watterson, J. Med. Chem. 42 (1999) 910-9.] Reactions were initiated by addition of MLCK protein and incubated for 20 min at 25° C. Reactions were spotted onto P-81 paper (Whatman, Clifton, N.J.), washed with 75 mM H3PO4 and 95% EtOH, and quantified by scintillation counting in EcoScintO (National Diagnostics, Atlanta, Ga.). Testing of compounds for kinase inhibitory activity against the structurally and functionally related kinases death-associated protein kinase (DAPK) and the signal transduction pathway relevant kinases protein kinase A (PKA) and protein kinase C (PKC) was performed as described by using the corresponding peptide substrates and assay conditions. [[…]. Guo, […]. Bourguignon, […]. Van Eldik and D. M. Watterson, J. Med. Chem 45 (2002) 563-6; A. M. Schumacher, […] and D. M. Watterson, Biochemistry 43 (2004) 8116-24; […]. Schumacher and D. M. Watterson, Pharmacol Ther 93 (2002) 217-24; […]. Schumacher, C. Weiss, M. Egli and D. M. Watterson, J. Biol. Chem. 276 (2001) 38956-65; D. M. Watterson, S. Mirzoeva, L. Guo, […]. Bourguignon, […] and L. J. Van Eldik, Neurochem Int. 39 (2001) 459-68.]

| SMILES | kinase inhibitor activity (in words) |
| --- | --- |
| CN1CCCC1CCNC(=O)CCCCCCCCCCn1nc(-c2ccccc2)ccc1=N (stereo not drawn) [Compound 6, 11-(6-imino-3-phenylpyridazin-1(6H)-yl)-N-(2-(1-methylpyrrolidin-2-yl)ethyl)-undecanamide] | exhibit kinase inhibitory activity of varying affinity and selectivity |
| N=c1ccc(-c2ccccc2)nn1CCCCCCCCCCC(=O)NCCC1CCCC1 [Compound 10, N-(2-cyclopentylethyl)-11-(6-imino-3-phenylpyridazin-1(6H)-yl)undecanamide] | exhibit kinase inhibitory activity of varying affinity and selectivity |
| N=c1ccc(-c2ccccc2)nn1CCCCCCCCCCC(=O)NCCc1c[nH]cn1 [Compound 5, N-(2-(1H-imidazol-4-yl)ethyl)-11-(6-imino-3-phenylpyridazin-1(6H)-yl)undecanamide] | exhibit kinase inhibitory activity of varying affinity and selectivity |
